# Source: the supplement of paper PMC8728848
# The other results are listed elsewhere or left out.
# B1: PX14343F-bfa-562-20-562 (Bacteroides fragilis) (protein)
# chain: CDDFLDSFPQDTVTNENFWKSKEDADKVLVDIYASLLPKDAIFFDEAMSDNAYLVWDWWGGAQQVANGSYTTSGEIPTNRWNGSYEVIRKCWFLLEGIEKIEDISEQDKNKIIGETYFMLAYNYYVLTSYFGDVPLVTKTLAIPESKQLVRTPKAEVVDYAINKLKEAAVMLEGLSQEKGRVTADACRFLIARMYLYNGDYSNVLETVKLLEGKYQLYREGDTPYEDLFSGVAENSCEVILSVVCDKRVGEIYTSHGGNGIMLLKGITGEDPYRGVTPSGSLVDAYPMADGRLIHEAGSSYDPKKPYEGRDPRFYQSIVYPTGQIKYLDVETGTVKERLYDPEDPTTVPEHQYNYSQPSATGYMWNKYIDYSVYAMNSVWDCTNDIIVFRYADVLLMKAEALLQTKGESAKEEVCNLIDQLRDRCSCGRVHRENYNSKDELMELLKNERRIELANEGLRYMDLIRWKDAEKNTIVTGVGLTGQMYGAYMRKDGVGKDDKTVDVDNTPRRYIETRYFNASKGYLFPIPQKERDLNPNLTQNPNW
# Tests used:
# Assay in all cases: glycan array binding signal (z-score within array); higher = stronger binding
# Conditions in all cases: glycan notation: IUPAC condensed, linker removed
# [1] = molecular target: GlcNAc(b1-2)Gal(b1-3)GalNAc
# Summary of the method: (§1)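 Glycan array data were curated from 3228 arrays in the Consortium for Functional Glycomics database and kept only where the protein sequence was available. Glycan names were converted to IUPAC-condensed notation, and columns mapping to the same glycan were averaged. The binding signal is a within-array Z-score, averaged across arrays of the same protein sequence at different concentrations or buffers and across linkers. Negative Z-scores can be read as non-binding.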
# [2] = molecular target: GlcNAc(b1-2)Man(a1-3)[GlcNAc(b1-2)Man(a1-6)]Man(b1-4)GlcNAc(b1-4)GlcNAc
# Summary of the method: as §1
# [3] = molecular target: GlcNAc(b1-2)Man(a1-3)[GlcNAc(b1-2)Man(a1-6)]Man(b1-4)GlcNAc(b1-4)[Fuc(a1-6)]GlcNAc
# Summary of the method: as §1
# [4] = molecular target: GlcNAc(b1-2)Man(a1-3)[GlcNAc(b1-4)][GlcNAc(b1-2)Man(a1-6)]Man(b1-4)GlcNAc(b1-4)GlcNAc
# Summary of the method: as §1
# [5] = molecular target: GlcNAc(b1-2)Man(a1-3)[GlcNAc(b1-4)][GlcNAc(b1-2)Man(a1-6)]Man(b1-4)GlcNAc(b1-4)[Fuc(a1-6)]GlcNAc
# Summary of the method: as §1
# [6] = molecular target: GlcNAc(b1-2)[GlcNAc(b1-4)]Man(a1-3)[GlcNAc(b1-2)Man(a1-6)]Man(b1-4)GlcNAc(b1-4)GlcNAc
# Summary of the method: as §1
# [7] = molecular target: GlcNAc(b1-2)[GlcNAc(b1-4)]Man(a1-3)[GlcNAc(b1-4)][GlcNAc(b1-2)Man(a1-6)]Man(b1-4)GlcNAc(b1-4)GlcNAc
# Summary of the method: as §1
# [8] = molecular target: GlcNAc(b1-2)[GlcNAc(b1-4)]Man(a1-3)[GlcNAc(b1-4)][GlcNAc(b1-2)[GlcNAc(b1-6)]Man(a1-6)]Man(b1-4)GlcNAc(b1-4)GlcNAc
# Summary of the method: as §1
# [9] = molecular target: GlcNAc(b1-2)[GlcNAc(b1-4)]Man(a1-3)[GlcNAc(b1-4)][GlcNAc(b1-2)[GlcNAc(b1-6)]Man(a1-6)]Man(b1-4)GlcNAc(b1-4)[Fuc(a1-6)]GlcNAc
# Summary of the method: as §1
# [10] = molecular target: GlcNAc(b1-2)[GlcNAc(b1-6)]Man(a1-6)[GlcNAc(b1-2)Man(a1-3)]Man(b1-4)GlcNAc(b1-4)GlcNAc
# Summary of the method: as §1
# [11] = molecular target: GlcNAc(b1-2)[GlcNAc(b1-6)]Man(a1-6)[GlcNAc(b1-2)Man(a1-3)]Man(b1-4)GlcNAc(b1-4)[Fuc(a1-6)]GlcNAc
# Summary of the method: as §1
# [12] = molecular target: GlcNAc(b1-2)[GlcNAc(b1-6)]Man(a1-6)[GlcNAc(b1-4)][GlcNAc(b1-2)Man(a1-3)]Man(b1-4)GlcNAc(b1-4)GlcNAc
# Summary of the method: as §1
# [13] = molecular target: GlcNAc(b1-3)Fuc
# Summary of the method: as §1
# [14] = molecular target: GlcNAc(b1-3)Gal
# Summary of the method: as §1
# [15] = molecular target: GlcNAc(b1-3)Gal(b1-3)GalNAc
# Summary of the method: as §1
# [16] = molecular target: GlcNAc(b1-3)Gal(b1-4)Glc
# Summary of the method: as §1
# [17] = molecular target: GlcNAc(b1-3)Gal(b1-4)GlcNAc
# Summary of the method: as §1
# [18] = molecular target: GlcNAc(b1-3)Gal(b1-4)GlcNAc(b1-2)Man(a1-3)[GlcNAc(b1-3)Gal(b1-4)GlcNAc(b1-2)Man(a1-6)]Man(b1-4)GlcNAc(b1-4)GlcNAc
# Summary of the method: as §1
# [19] = molecular target: GlcNAc(b1-3)Gal(b1-4)GlcNAc(b1-2)Man(a1-3)[GlcNAc(b1-3)Gal(b1-4)GlcNAc(b1-2)Man(a1-6)]Man(b1-4)GlcNAc(b1-4)[Fuc(a1-6)]GlcNAc
# Summary of the method: as §1
# [20] = molecular target: GlcNAc(b1-3)Gal(b1-4)GlcNAc(b1-2)[GlcNAc(b1-3)Gal(b1-4)GlcNAc(b1-6)]Man(a1-6)[GlcNAc(b1-3)Gal(b1-4)GlcNAc(b1-2)Man(a1-3)]Man(b1-4)GlcNAc(b1-4)GlcNAc
# Summary of the method: as §1
# [21] = molecular target: GlcNAc(b1-3)Gal(b1-4)GlcNAc(b1-3)Gal(b1-4)GlcNAc
# Summary of the method: as §1
# [22] = molecular target: GlcNAc(b1-3)Gal(b1-4)GlcNAc(b1-3)Gal(b1-4)GlcNAc(b1-2)Man(a1-3)[GlcNAc(b1-3)Gal(b1-4)GlcNAc(b1-3)Gal(b1-4)GlcNAc(b1-2)Man(a1-6)]Man(b1-4)GlcNAc(b1-4)GlcNAc
# Summary of the method: as §1
# [23] = molecular target: GlcNAc(b1-3)Gal(b1-4)GlcNAc(b1-3)Gal(b1-4)GlcNAc(b1-2)Man(a1-3)[GlcNAc(b1-3)Gal(b1-4)GlcNAc(b1-3)Gal(b1-4)GlcNAc(b1-2)Man(a1-6)]Man(b1-4)GlcNAc(b1-4)[Fuc(a1-6)]GlcNAc
# Summary of the method: as §1
# [24] = molecular target: GlcNAc(b1-3)Gal(b1-4)GlcNAc(b1-3)Gal(b1-4)GlcNAc(b1-2)[GlcNAc(b1-3)Gal(b1-4)GlcNAc(b1-3)Gal(b1-4)GlcNAc(b1-6)]Man(a1-6)[GlcNAc(b1-3)Gal(b1-4)GlcNAc(b1-3)Gal(b1-4)GlcNAc(b1-2)Man(a1-3)]Man(b1-4)GlcNAc(b1-4)[Fuc(a1-6)]GlcNAc
# Summary of the method: as §1
# [25] = molecular target: GlcNAc(b1-3)Gal(b1-4)GlcNAc(b1-3)Gal(b1-4)GlcNAc(b1-3)Gal(b1-4)GlcNAc(b1-2)Man(a1-3)[GlcNAc(b1-3)Gal(b1-4)GlcNAc(b1-3)Gal(b1-4)GlcNAc(b1-3)Gal(b1-4)GlcNAc(b1-2)Man(a1-6)]Man(b1-4)GlcNAc(b1-4)GlcNAc
# Summary of the method: as §1
# [26] = molecular target: GlcNAc(b1-3)Gal(b1-4)GlcNAc(b1-3)Gal(b1-4)GlcNAc(b1-3)Gal(b1-4)GlcNAc(b1-2)Man(a1-3)[GlcNAc(b1-3)Gal(b1-4)GlcNAc(b1-3)Gal(b1-4)GlcNAc(b1-3)Gal(b1-4)GlcNAc(b1-2)Man(a1-6)]Man(b1-4)GlcNAc(b1-4)[Fuc(a1-6)]GlcNAc
# Summary of the method: as §1
# [27] = molecular target: GlcNAc(b1-3)Gal(b1-4)GlcNAc(b1-3)Gal(b1-4)GlcNAc(b1-3)Gal(b1-4)GlcNAc(b1-2)[GlcNAc(b1-3)Gal(b1-4)GlcNAc(b1-3)Gal(b1-4)GlcNAc(b1-3)Gal(b1-4)GlcNAc(b1-6)]Man(a1-6)[GlcNAc(b1-3)Gal(b1-4)GlcNAc(b1-3)Gal(b1-4)GlcNAc(b1-3)Gal(b1-4)GlcNAc(b1-2)Man(a1-3)]Man(b1-4)GlcNAc(b1-4)[Fuc(a1-6)]GlcNAc
# Summary of the method: as §1
# [28] = molecular target: GlcNAc(b1-3)Gal(b1-4)GlcNAc(b1-3)Gal(b1-4)GlcNAc(b1-3)Gal(b1-4)GlcNAc(b1-3)Gal(b1-4)GlcNAc(b1-2)Man(a1-3)[GlcNAc(b1-3)Gal(b1-4)GlcNAc(b1-3)Gal(b1-4)GlcNAc(b1-3)Gal(b1-4)GlcNAc(b1-3)Gal(b1-4)GlcNAc(b1-2)Man(a1-6)]Man(b1-4)GlcNAc(b1-4)GlcNAc
# Summary of the method: as §1
# [29] = molecular target: GlcNAc(b1-3)Gal(b1-4)GlcNAc(b1-3)Gal(b1-4)GlcNAc(b1-3)Gal(b1-4)GlcNAc(b1-3)Gal(b1-4)GlcNAc(b1-2)Man(a1-3)[GlcNAc(b1-3)Gal(b1-4)GlcNAc(b1-3)Gal(b1-4)GlcNAc(b1-3)Gal(b1-4)GlcNAc(b1-3)Gal(b1-4)GlcNAc(b1-2)Man(a1-6)]Man(b1-4)GlcNAc(b1-4)[Fuc(a1-6)]GlcNAc
# Summary of the method: as §1
# [30] = molecular target: GlcNAc(b1-3)Gal(b1-4)GlcNAc(b1-3)Gal(b1-4)GlcNAc(b1-3)Gal(b1-4)GlcNAc(b1-3)Gal(b1-4)GlcNAc(b1-2)[GlcNAc(b1-3)Gal(b1-4)GlcNAc(b1-3)Gal(b1-4)GlcNAc(b1-3)Gal(b1-4)GlcNAc(b1-3)Gal(b1-4)GlcNAc(b1-6)]Man(a1-6)[GlcNAc(b1-3)Gal(b1-4)GlcNAc(b1-3)Gal(b1-4)GlcNAc(b1-3)Gal(b1-4)GlcNAc(b1-3)Gal(b1-4)GlcNAc(b1-2)Man(a1-3)]Man(b1-4)GlcNAc(b1-4)[Fuc(a1-6)]GlcNAc
# Summary of the method: as §1
binder,measurement,setting,value
B1,glycan array binding signal (z-score),[1],0.44
same,glycan array binding signal (z-score),[2],-0.414
same,glycan array binding signal (z-score),[3],0.561
same,glycan array binding signal (z-score),[4],-0.464
same,glycan array binding signal (z-score),[5],-0.489
same,glycan array binding signal (z-score),[6],-0.748
same,glycan array binding signal (z-score),[7],0.199
same,glycan array binding signal (z-score),[8],-0.524
same,glycan array binding signal (z-score),[9],-0.381
same,glycan array binding signal (z-score),[10],-0.204
same,glycan array binding signal (z-score),[11],0.283
same,glycan array binding signal (z-score),[12],0.886
same,glycan array binding signal (z-score),[13],-0.266
same,glycan array binding signal (z-score),[14],-0.245
same,glycan array binding signal (z-score),[15],0.443
same,glycan array binding signal (z-score),[16],-0.75
same,glycan array binding signal (z-score),[17],-0.818
same,glycan array binding signal (z-score),[18],0.223
same,glycan array binding signal (z-score),[19],1.05
same,glycan array binding signal (z-score),[20],1.87
same,glycan array binding signal (z-score),[21],-0.668
same,glycan array binding signal (z-score),[22],1.18
same,glycan array binding signal (z-score),[23],1.72
same,glycan array binding signal (z-score),[24],0.546
same,glycan array binding signal (z-score),[25],1.39
same,glycan array binding signal (z-score),[26],0.242
same,glycan array binding signal (z-score),[27],0.11
same,glycan array binding signal (z-score),[28],0.436
same,glycan array binding signal (z-score),[29],0.228
same,glycan array binding signal (z-score),[30],1.47

# 2 neighbouring records already listed, for reference:
binder,measurement,setting,value
B1,glycan array binding signal (z-score),[10],-0.204
same,glycan array binding signal (z-score),[11],0.283
